From patent US20220275059A1 come the findings set out here.

By UniProt entry, the sequences of proteins in these tests, tags left out. Residues count along the entry.
UniProt Q6Q1S2, residues 16-1291: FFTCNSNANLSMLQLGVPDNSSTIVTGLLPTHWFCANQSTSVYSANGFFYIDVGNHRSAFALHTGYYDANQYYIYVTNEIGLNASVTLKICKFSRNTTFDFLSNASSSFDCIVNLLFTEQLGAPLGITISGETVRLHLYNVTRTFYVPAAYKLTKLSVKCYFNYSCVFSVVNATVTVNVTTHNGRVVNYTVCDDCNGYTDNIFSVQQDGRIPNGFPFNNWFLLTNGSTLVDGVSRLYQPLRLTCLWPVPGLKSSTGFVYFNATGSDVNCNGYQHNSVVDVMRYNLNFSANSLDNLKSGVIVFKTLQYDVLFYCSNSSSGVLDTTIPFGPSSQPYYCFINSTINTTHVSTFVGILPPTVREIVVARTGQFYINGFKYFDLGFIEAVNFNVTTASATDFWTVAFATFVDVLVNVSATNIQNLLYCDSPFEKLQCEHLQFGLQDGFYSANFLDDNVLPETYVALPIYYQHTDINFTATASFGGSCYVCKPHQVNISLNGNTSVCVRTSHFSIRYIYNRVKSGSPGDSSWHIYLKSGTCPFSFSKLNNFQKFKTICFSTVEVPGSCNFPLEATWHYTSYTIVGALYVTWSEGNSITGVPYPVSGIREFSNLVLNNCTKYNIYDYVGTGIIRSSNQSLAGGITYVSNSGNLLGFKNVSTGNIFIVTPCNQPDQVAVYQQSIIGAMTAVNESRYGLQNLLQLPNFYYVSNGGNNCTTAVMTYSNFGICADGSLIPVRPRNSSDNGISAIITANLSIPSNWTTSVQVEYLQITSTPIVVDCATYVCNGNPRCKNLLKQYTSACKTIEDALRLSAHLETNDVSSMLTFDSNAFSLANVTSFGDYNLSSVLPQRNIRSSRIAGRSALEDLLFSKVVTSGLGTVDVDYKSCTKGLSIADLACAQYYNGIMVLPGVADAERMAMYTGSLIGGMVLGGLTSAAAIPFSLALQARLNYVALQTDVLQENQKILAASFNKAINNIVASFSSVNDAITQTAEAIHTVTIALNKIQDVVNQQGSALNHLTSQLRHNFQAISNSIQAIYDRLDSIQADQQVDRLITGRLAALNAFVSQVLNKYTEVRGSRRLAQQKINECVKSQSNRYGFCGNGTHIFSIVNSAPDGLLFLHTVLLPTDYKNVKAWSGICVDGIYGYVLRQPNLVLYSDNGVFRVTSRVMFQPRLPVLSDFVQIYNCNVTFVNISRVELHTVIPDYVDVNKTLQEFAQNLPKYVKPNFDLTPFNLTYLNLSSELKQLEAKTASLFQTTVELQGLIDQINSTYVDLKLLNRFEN

Changes are numbered by the printed parent chain. Results are given in words; binding and its absence hold for the method and conditions named.

In the experiment the target is NL63 coronavirus spike protein (HCoV-NL63) (UniProt Q6Q1S2). As to the kind of experiment: ELISA on NL63 Secto. In general terms: ELISA stands for enzyme-linked immunosorbent assay.

B1: 1.5d6 (antibody, V domains shown)
VH: QVQLVESGGGVVQPGRSLRLSCAASGFTFSRYGMHWVRQAPGKGLEWVAVIGYDGSNKYYADSVKGRFTISRDNSKNTLSLQMNSLRAEDTAVYYCARGGWNDDYYYGLDVWGQGTTVTVSS
VL: DIVMTQSPLSLPVIPGEPASISCRSSQSLLHSNGYNYLDWYLQKPGQSPQLLIYLGSNRASGVPDRFSGSGSGTDFTLKISIVEAEDAGVYYCMQVLQTPWTFGQGTKVEIKR
As to B1, the binding result is recorded as “no binding (tested: 25.00 (no unit printed))”.

B2: 1.13a9 (antibody, V domains shown)
VH: EVQLVESGGGLVQPGGSLRLSCAASGFTFSNYWMTWVRQAPGKGLEWVANIKEDGSEKYYVDSVKGRFTLSRDNAKNSLYLQMNSLRAEDTAVYYCAKEGALLWFGVLRPRAFDIWGQGTMVTVSS
VL: B1 VL with I14T, K44N, Q50H, G56A, I82R, E86A, A88V, V96A, W101Y, V109L
B2: the binding result is given as “no binding (tested: 25.00 (no unit printed))”.
